These are yes or no findings as the source states them, for the method shown. For part of these data: Binding seen in cells or lysates may run through a third protein. Some results given as binding are weak or reduced against the parent protein; the word gives no strength.
Legend:
[1] = molecular target: Flag-tagged hPER1 (human Period 1, full-length open reading frame, amino acids 1 to 1289) (human) (UniProt O15534); assay: HA immunoprecipitation and Western blot, co-transfected 293T cells
[2] = molecular target: Flag-tagged hPER1 (human Period 1, full-length open reading frame, amino acids 1 to 1289) (human) (UniProt O15534); assay: co-immunoprecipitation from 293T cells
[3] = molecular target: Flag-tagged hPER1 (human Period 1, full-length open reading frame, amino acids 1 to 1289) (human) (UniProt O15534); assay: co-immunoprecipitation from co-transfected 293T cells
[4] = molecular target: Flag-tagged hPER1 (human Period 1, full-length open reading frame, amino acids 1 to 1289) (human) (UniProt O15534); assay: co-immunoprecipitation from co-transfected 293T cells (anti-Flag IP / anti-HA blot and anti-HA IP / anti-Flag blot)
[5] = molecular target: Flag-tagged hPER1 (human Period 1, full-length open reading frame, amino acids 1 to 1289) (human) (UniProt O15534); assay: co-immunoprecipitation from 293T cells transfected with hPER1 only (anti-Flag IP / anti-hCKIε blot and anti-hCKIε IP / anti-Flag blot)

By UniProt entry, the sequences of proteins in these tests, tags left out. Where a name states a change or a piece, a line headed by the entry shows the natural chain unless it says otherwise. Chains listed by the source or under a name are the forms on record and can include a tag or linker. Residues count along the entry.
UniProt O15534, residues 1-1289: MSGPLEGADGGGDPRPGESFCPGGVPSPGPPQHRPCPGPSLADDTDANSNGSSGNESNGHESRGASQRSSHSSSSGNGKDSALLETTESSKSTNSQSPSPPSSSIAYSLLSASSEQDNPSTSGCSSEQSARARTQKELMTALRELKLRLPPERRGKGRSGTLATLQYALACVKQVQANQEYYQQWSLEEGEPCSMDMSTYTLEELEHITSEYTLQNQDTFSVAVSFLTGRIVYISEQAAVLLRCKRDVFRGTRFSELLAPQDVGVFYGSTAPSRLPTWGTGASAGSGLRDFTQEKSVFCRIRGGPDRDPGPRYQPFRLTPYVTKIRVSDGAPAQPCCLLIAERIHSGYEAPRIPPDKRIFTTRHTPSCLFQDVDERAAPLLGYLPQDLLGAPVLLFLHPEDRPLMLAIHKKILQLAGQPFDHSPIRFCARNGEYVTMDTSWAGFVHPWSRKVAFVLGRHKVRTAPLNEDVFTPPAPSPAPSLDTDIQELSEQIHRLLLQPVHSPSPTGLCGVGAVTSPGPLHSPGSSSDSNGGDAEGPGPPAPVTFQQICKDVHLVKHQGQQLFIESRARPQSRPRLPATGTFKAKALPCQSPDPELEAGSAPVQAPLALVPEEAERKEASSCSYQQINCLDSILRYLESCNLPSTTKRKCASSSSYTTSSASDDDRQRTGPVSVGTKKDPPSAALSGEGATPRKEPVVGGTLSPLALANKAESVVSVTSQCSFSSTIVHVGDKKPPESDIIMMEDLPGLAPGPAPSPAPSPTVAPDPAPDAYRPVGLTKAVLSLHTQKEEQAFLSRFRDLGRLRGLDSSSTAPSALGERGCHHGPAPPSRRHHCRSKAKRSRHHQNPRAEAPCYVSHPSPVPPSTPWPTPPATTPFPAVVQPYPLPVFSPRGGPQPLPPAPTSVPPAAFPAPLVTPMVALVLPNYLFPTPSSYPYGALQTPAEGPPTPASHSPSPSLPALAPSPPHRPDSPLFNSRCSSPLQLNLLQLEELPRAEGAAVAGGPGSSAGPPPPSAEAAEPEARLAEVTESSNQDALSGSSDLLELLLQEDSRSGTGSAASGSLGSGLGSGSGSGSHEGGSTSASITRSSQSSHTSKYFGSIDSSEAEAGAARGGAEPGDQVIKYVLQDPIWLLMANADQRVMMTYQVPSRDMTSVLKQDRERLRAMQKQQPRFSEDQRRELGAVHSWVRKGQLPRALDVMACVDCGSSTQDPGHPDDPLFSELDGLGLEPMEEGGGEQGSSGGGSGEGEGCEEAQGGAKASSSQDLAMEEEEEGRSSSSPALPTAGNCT
UniProt P49674: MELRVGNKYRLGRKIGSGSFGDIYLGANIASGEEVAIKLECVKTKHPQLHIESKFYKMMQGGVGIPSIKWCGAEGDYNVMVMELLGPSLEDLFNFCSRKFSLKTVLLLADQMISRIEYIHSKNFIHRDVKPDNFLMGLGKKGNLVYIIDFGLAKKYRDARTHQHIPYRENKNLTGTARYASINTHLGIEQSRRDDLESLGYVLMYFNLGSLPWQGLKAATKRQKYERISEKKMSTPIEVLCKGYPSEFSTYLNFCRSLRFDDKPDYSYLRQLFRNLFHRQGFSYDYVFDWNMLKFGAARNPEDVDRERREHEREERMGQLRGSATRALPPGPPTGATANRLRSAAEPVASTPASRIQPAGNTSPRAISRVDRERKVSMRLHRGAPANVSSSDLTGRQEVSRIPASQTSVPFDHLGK
HA-tagged hCKIε (human casein kinase I ε, wild type, expressed from pCEP4-CKIε in 293T cells) (P49674, form named): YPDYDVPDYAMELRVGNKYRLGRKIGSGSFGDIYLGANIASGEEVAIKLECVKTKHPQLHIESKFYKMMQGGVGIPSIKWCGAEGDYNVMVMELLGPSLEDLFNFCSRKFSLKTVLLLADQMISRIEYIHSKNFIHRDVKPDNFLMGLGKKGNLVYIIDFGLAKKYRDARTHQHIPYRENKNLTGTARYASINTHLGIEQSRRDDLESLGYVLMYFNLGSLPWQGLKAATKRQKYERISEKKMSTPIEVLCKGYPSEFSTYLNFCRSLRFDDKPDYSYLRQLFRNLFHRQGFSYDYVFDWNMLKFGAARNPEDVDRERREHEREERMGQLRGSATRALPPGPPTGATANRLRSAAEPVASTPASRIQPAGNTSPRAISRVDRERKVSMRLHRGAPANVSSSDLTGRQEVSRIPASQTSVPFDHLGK

Measured: binding

HA-tagged hCKIε (human casein kinase I ε, wild type, expressed from pCEP4-CKIε in 293T cells) (from UniProt P49674 1-416) (enzyme)
not listed: [5]
binds: all other assays above

endogenous hCKIε of 293T cells (from UniProt P49674 1-416) (enzyme)
binds: [2] | [5]
